Taken from: PubChem BioAssay AID504784 (Drosophila RNAi Screening Center, 2011)

- Purpose: 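Search for regulators of lipid droplet storage in oleate-fed fly cells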 (primary screen)
- Cells: Drosophila Kc167 embryonic cells
- Reagents: long dsRNA against Drosophila genes, about 250 ng dsRNA per well
- Duration: 4 days
- Treatment: cells fed 400 µM oleic acid bound to BSA
- Read-out: 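Microscope images give a droplet-to-nucleus area ratio, taken as log and converted to a screen-wide B-score; higher values mean greater lipid storage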
- Scale: droplet/nuclear area B-score: higher = more stored lipid (overstorage)
In all, the deposit lists about 17,000 reagents; below is an unselected part of those that have a named target and a result. 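Each column is one replicate's B-score; the combined score over replicates was not deposited, so single values may mislead.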 A plus sign joins genes that one reagent is predicted to hit.

no.	Target gene	amplicon	droplet/nuclear area B-score, replicate 1	droplet/nuclear area B-score, replicate 2	droplet/nuclear area B-score, replicate 3
1	sw + Sdic4 + Sdic3 + 2 more	DRSC20696	-1.01	0.03	
2	CG15745 (retired record)	DRSC19711	-1.54	-0.159	0.492
3	Rilpl	DRSC18494	0.714		
4	CG8119	DRSC20083	0.63	-1.05	
5	CG16713	DRSC00477	-1.06	0.232	
6	CG30056	DRSC21752	-0.851	-1.36	
7	ND-13B	DRSC10643	1.85	0.864	
8	CG42729	DRSC10236	0.839	1.39	
9	CR31846 (retired record)	DRSC22272	-0.416	-0.00605	
10	rogdi	DRSC10906	-2.55	0.783	-0.999
11	Nrt	DRSC11237	-0.148	-1.9	1.87
12	CG6006	DRSC13137	0.285	-1.08	
13	CG6006	DRSC15946	-0.533	0.355	
14	CG9300	DRSC11064	-0.0253	-0.0125	0.257
15	CG42366	DRSC02760	1.83	0.277	
16	CG42366	DRSC23297	-1.99	-0.183	
17	CG30268	DRSC21983	-0.706	-0.614	
18	CG5418	DRSC02857	0.437	0.787	
19	obst-A	DRSC20543	-0.25	-0.185	
20	ringer	DRSC10455	0.289	2.38	
21	fal	DRSC11087	-0.638	0.491	0.445
22	nebu	DRSC09807	-1.03	-1.55	
23	nebu	DRSC09808	-0.71	-1.77	
24	mAcon1	DRSC01853	-0.593	-1.36	
25	CG3919	DRSC10389	2.12	0.0935	-0.0574
26	HLH4C	DRSC18670	-0.352	0.497	4.06
27	HLH4C	DRSC21322	-0.858	0.596	
28	Cpr50Ca	DRSC05454	0.16	-0.372	
29	Cpr50Ca	DRSC06372	-0.962	-0.00126	
30	Cpr50Ca	DRSC06375	-0.847	-0.749	
31	Or67a	DRSC11240	-0.513	-2.19	
32	Wdr62	DRSC00081	-0.917	-0.379	
33	Wdr62	DRSC00701	1.46	0.742	
34	Wdr62	DRSC21913	0.0848	0.422	
35	CG7378	DRSC20041	0.75	-0.44	
36	drd	DRSC19343	-0.0709	1.85	
37	drd	DRSC21466	-0.0384	-0.73	
38	CG13203	DRSC06327	-0.0285	1.77	
39	PsGEF (retired record)	DRSC18600	0.672	0.0973	
40	PsGEF (retired record)	DRSC18601	0.0503	0.141	
41	CG33463	DRSC22915	-1.16	0.947	
42	NimB1	DRSC01880	0.448	-0.0575	
43	CG17786	DRSC15270	1.87	0.0822	
44	Adf1	DRSC04941	-0.444	-0.371	
45	Adf1	DRSC04963	-1.37	-0.918	
46	Slimp	DRSC13656	0.981	0.838	
47	CG5068	DRSC10476	-0.0532	2.95	
48	Teh2	DRSC08458	1.12	0.0256	
49	CG13908 (retired record)	DRSC08378	-0.455	-0.0419	
50	p23	DRSC15158	-0.521	3.23	
51	Prosalpha6	DRSC03401	1.97	1.48	
52	Est-Q	DRSC11835	0.142	0.209	-0.0805
53	CG45263	DRSC14360	0.734	0.605	
54	CG45263	DRSC14361	0.422	0.156	
55	CG45263	DRSC14363	-0.337	-1.86	
56	CG2003	DRSC15411	-0.393	1.23	
57	Or22a	DRSC00764	2.55	-2.72	
58	CG4440	DRSC02747	0.134	-0.304	
59	Scox	DRSC03117	1.99	4.17	
60	Ets65A	DRSC09968	0.364	1.13	
61	Ets65A	DRSC10738	1.16	0.308	
62	Ets65A	DRSC11164	-2.92	0.223	
63	CG13311	DRSC09982	-1.12	0.0861	
64	spz4	DRSC02410	1.93	1.2	
65	CG33012	DRSC06287	-0.183	-0.0398	
66	CG33012	DRSC06288	0.136	0.491	
67	Top1	DRSC20295	-0.572	-3.46	
68	CG33110	DRSC14694	-1.01	-0.0263	
69	CG33110	DRSC16137	1.11	-3.62	
70	CG9222	DRSC03158	-2.4	0.67	
71	eIF2gamma	DRSC13081	4.54	3.68	
72	eIF2gamma	DRSC16873	-0.199	-0.432	
73	CG6144	DRSC02934	0.428	-1.55	
74	CG17260	DRSC00497	0.0261	-0.335	
75	GluClalpha	DRSC16680	-1.64	1.38	
76	CG14265	DRSC18591	-1.21	0.179	
77	Hyccin	DRSC06983	-1.3	-2.17	
78	CG31826	DRSC03357	0.416	1.69	
79	CG8768	DRSC07259	-0.325	-0.387	
80	CG10340	DRSC14232	4.17	-0.711	
81	Syn2	DRSC06902	-0.355	2.36	
82	CG12268	DRSC14491	0.937	0.0207	
83	bin	DRSC10332	1.1	1.78	
84	Aps	DRSC10629	-1.57	1.15	
85	CG9123	DRSC20156	-0.231	-1.55	
86	mfrn	DRSC15687	2.65	0.673	
87	Non3	DRSC16359	0.197	0.425	
88	CG7080	DRSC16193	0.606	0.964	
89	COX5A	DRSC16611	2.08	3	
90	Frl	DRSC09300	0.451	0.196	
91	Frl	DRSC10027	-0.519	-1.71	
92	Frl	DRSC10716	-0.705	0.455	0.599
93	CG12362	DRSC09884	-0.932	-1.31	
94	Dcps	DRSC12299		1.9	
95	glec	DRSC16958	1.81	0.111	
96	CG16820	DRSC02522	1.11	1.34	
97	DptB	DRSC06001	-2.83	-0.186	
98	Syx1A	DRSC15359	0.137	0.969	
99	Syx1A	DRSC21554	-0.866	0.383	
100	Ald1	DRSC14109	-0.524	-0.674	
101	CG10337	DRSC02038	0.137	-0.141	
102	CG7460	DRSC10850	0.00664	-0.969	
103	Mlc-c	DRSC18683	-0.487	-2.62	-1.02
104	sdt	DRSC17555	-1.13	-1.32	
105	sdt	DRSC17556	-0.537	-1.95	
106	sdt	DRSC17860	0.398	0.238	
107	sdt	DRSC17861	-0.396	-0.302	
108	sdt	DRSC18022	1.87	1.51	
109	sdt	DRSC18025	-0.799	-0.438	
110	sdt	DRSC18026	-1.97		
111	sdt	DRSC18027	-1.59	-1.03	
112	sdt	DRSC18108	0.101	-0.156	

Records above whose gene name begins with M or m:
Target gene	amplicon	droplet/nuclear area B-score, replicate 1	droplet/nuclear area B-score, replicate 2	droplet/nuclear area B-score, replicate 3
mAcon1	DRSC01853	-0.593	-1.36	
mfrn	DRSC15687	2.65	0.673	
Mlc-c	DRSC18683	-0.487	-2.62	-1.02
